Assay results as given in paper PMC5835772.
No constants are given. Whether binding was seen depends on the method and setting. Some entries that bind do so weakly or less than the wild type.

Chains of the proteins cited; added tags and fusions are not shown.
UniProt Q8N0S6: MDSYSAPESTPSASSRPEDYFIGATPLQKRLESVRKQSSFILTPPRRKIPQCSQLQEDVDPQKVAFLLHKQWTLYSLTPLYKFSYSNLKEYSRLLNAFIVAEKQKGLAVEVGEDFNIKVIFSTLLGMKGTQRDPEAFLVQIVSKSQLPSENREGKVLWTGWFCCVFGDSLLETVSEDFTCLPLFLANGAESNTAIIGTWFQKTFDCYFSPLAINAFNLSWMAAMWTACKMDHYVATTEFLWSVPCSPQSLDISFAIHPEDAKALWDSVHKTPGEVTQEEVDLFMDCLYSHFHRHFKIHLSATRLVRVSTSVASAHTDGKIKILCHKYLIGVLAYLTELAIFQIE

Biological target: CENP-N (as it stands in the CENP-LN complex) (human) (UniProt Q96H22)
Experiment: cryo-EM structure; reconstituted complex of CENP-A NCP (147 bp DNA) and CENP-LN; single-particle analysis, average resolution 5.8 Å; known crystal structures and a crude model of CENP-N^N docked into the map; both purified

Substance: CENP-L (as it stands in the CENP-LN complex) (from UniProt Q8N0S6 1-344) (other; other documents disagree on this pair)
- binding: binds
